Measurements published in US20210038661A1, “TREATMENT OF TUMORS BY A COMBINATION OF AN ONCOLYTIC ADENOVIRUS AND A CDK4/6 INHIBITOR” (KLINIKUM RECHTS DER ISAR DER TECHNISCHEN UNIVERSITÄT MÜNCHEN, priority 2018, published 2021).
For at least one compound, name, drawing or mass did not settle the structure.

Columns and labels:
SK-N-MC cells = details: Dowless M et al., 2018; cited from earlier work
XVir-N-31 [1] = assay: Relative quantification of Fiber DNA copies by qPCR in RB positive bladder cancer cell lines; assay type: cell-based, Mastadenovirus, Type C, Serotype 5; details: combination with XVir-N-31; T24, UMUC3, 253J, RT112; 24-48 hpi
T24 cells [2] = assay: GFP expression of E1-deleted adenovirus (Ad-GFP) in T24 cells with and without Palbociclib; assay type: cell-based, human
[3] = test system: RB positive and RB negative bladder cancer derived cell lines; assay: Cell viability (SRB) of RB positive and RB negative bladder cancer cell lines, PD-0332991 plus XVir-N-31; assay type: cell-based, human; details: 24 h pretreatment with IC50 concentration, infection with XVir-N-31, four dpi
T24 cells [4] = assay: Western blot of viral protein expression in Ad-WT and XVir-N-31 infected T24 cells; assay type: cell-based, human; details: MOI 15, 500 nM PD, 12, 24 and 36 hpi; seen from 12 hpi for E1A, 24 hpi for the others
RT112, T24 and UMUC = assay: Adenovirus hexon staining in bladder cell lines infected with AD-WT; assay type: cell-based, human; details: 500 nM, 48 hours post infection
T24 bladder cancer cells = assay: Cytopathic effect in T24 cells infected with Ad-Delta24 or Onyx-015 plus PD0332991; assay type: cell-based, human; details: 500 nM, 20 MOI Ad-Delta24 or Onyx-015, 4 days post infection
XVir-N-31 [5] = assay: Titer test on Hek293 cells, RB positive and RB negative bladder cancer cell lines, PD-0332991 plus XVir-N-31; assay type: cell-based, Mastadenovirus, Type C, Serotype 5; details: 3 dpi, fold change relative to control

Which “sensitivity of SK-N-MC cells” value (SK-N-MC cells) does the source give for `CCN1CCN(Cc2ccc(Nc3ncc(F)c(-c4cc(F)c5nc(C)n(C(C)C)c5c4)n3)nc2)CC1` [LY-2835219, abemaciclib] here?
The value was “resistant”.

For `CC(=O)c1c(C)c2cnc(Nc3ccc(N4CCNCC4)cn3)nc2n(C2CCCC2)c1=O` [PD-0332991, palbociclib], which “viral replication (Fiber DNA copies)” value (XVir-N-31 [1]) is on record?
Its value is “increases viral replication dramatically”.

And the GFP expression (T24 cells [2]; 100 MOI Ad-GFP, 500 nM PD0332991 one day before infection and during incubation)?
Its GFP expression is “increase in GFP expression”.

And the GFP expression (T24 cells [2]; Ad-minus/GFP, 500 nM Palbociclib 24 hours before and 1 hour post infection, 48 hours post infection)?
The GFP expression was “strong increase of GFP expression”.

What about the “cell growth and cell viability” value [3] of the same molecule?
Its value is “only cell lines positive for RB showed a significant decrease”.

What about the “expression of viral proteins E1A, E1B-55k, DBP (E2A) and Hexon” value (T24 cells [4]) of the same molecule?
The value was “expressed at higher level”.

What about the hexon positive cells (RT112, T24 and UMUC) of the same molecule?
The hexon positive cells was “increased hexon positive cells significantly”.

And the “cell killing (cytopathic effect)” value (T24 bladder cancer cells)?
The value was “increased cell killing”.

What about the “viral particle formation (viral titer)” value (XVir-N-31 [5]) of the same molecule?
Its value is “only increased in RB positive cell lines”.
